From US20210087258A1 (UNIVERSITY OF TOKYO, published 2021)

What was measured:
Test in all cases: ELISA, VP1 coated, anti-FLAG-HRP detection
[1] = target: VP1 derived from human norovirus GII.4 (Narita 104 strain) (human norovirus GII.4 (Narita 104 strain))
[2] = target: VP1 derived from human norovirus GII.6 (7K strain) (human norovirus GII.6 (7K strain))
[3] = target: VP1 derived from human norovirus GII.2 (MK04 strain) (human norovirus GII.2 (MK04 strain))
[4] = target: VP1 derived from human norovirus GII.4 (Saga 1 strain) (human norovirus GII.4 (Saga 1 strain))

Measured: binding

B1: KVP-7B8 (VHH)
VHH: EVQLVESGGGLVQAGGSLRLSCAASGSTFSINGVAWYRQAPGKQRELVGGISRSGWTNYADSVKGRFTISSDNAKNTVYLQMNSLKPEDTAVYYCNVNLHSGLGNVKNYWGQGTQVTVSS
binds: all assays above

B2: KVP-7F10 (VHH)
VHH: EVQLVESGGGLVQAGGSLRLSCLASGSISSINTMAWYRQAPGKQRELVASISSGGGTNYADSVKGRFTISTDNAKNTVYLQMNSLESEDTAVYFCNLHNFSPISPPRSYWGQGTQVTVSS
binds: all assays above

No constants are given. Whether binding was seen depends on the method and setting. Binding calls can cover weak binding; strength is not graded here.
